Experimental data reported in patent US20240301000A1, “TETRAPEPTIDE DERIVATIVE,COSMETIC COMPOSITION OR PHARMACEUTICAL COMPOSITION AND USE THEREOF” (SHENZHEN WINKEY TECHNOLOGY CO., LTD, priority 2021, published 2024).
Part of at least one peptide drawing is inferred or uncertain, most often the ends. Residues, ends and D or L forms follow the SMILES beside them. *: point of attachment. X1 = O=C(OCc1cc(=O)c(O)co1)*; Nicotinoyl = O=C(c1cccnc1)*

What was measured:
Format in all cases: cell-based, Human
TNF-α = test: Anti-inflammatory cell assay, UV-irradiated HaCaT cells, TNF-α ELISA; conditions: 50 ppm, 48 h after UV irradiation, compared with UV group (FIG. 4)
Method: (§1) Fetal bovine serum, DMEM medium, penicillin, streptomycin, an IL-6 ELISA kit and a TNF-α ELISA kit.
(§2) Human keratinocytes (HaCaT) were purchased from the Kunming Cell Bank of China Center for Type Culture Collection under the Chinese Academy of Sciences.
(§3) • 50 ppm of the reference peptide, 50 ppm of the peptide (1), 50 ppm of the peptide (3), and 50 ppm of the peptide (5).
(§4) The frozen HaCaT cells were cultured and passaged at a ratio of 1:2 to about the 5th generation, and the cells in better growth were selected as experiment subjects.
(§5) When the cells were about 80% confluent, a model of inflammation stimulated by UV radiation was established. In the control group, a PBS solution was added and supplemented with the culture medium to 1000 μL, while no UV irradiation was performed; The UV group and the drug groups were exposed to an […] UV light. After irradiation, in the UV group the PBS solution and a culture medium were added to 1000 μL, and in the drug groups the diluted active substance and the culture medium were added to 1000 μL. The control group, the UV group, and the drug groups were further incubated in a 5% CO2 incubator at 37° C. for 48 h. After the completion of the culture, the solutions were centrifuged at 3000 rpm for 10 min, in each of which a cell supernatant was collected to obtain a sample liquid. […]

IL-6 = test: Anti-inflammatory cell assay, UV-irradiated HaCaT cells, IL-6 ELISA; conditions: 50 ppm, 48 h after UV irradiation, compared with UV group (FIG. 3)
Method: as §1, §2, §3, §4, §5

α-MSH = test: Cell assay for inhibition of α-MSH generation (ELISA, HaCaT supernatant); conditions: 100 ppm, 48 h, compared with PBS control group (FIG. 2)
Method: Fetal bovine serum, DMEM medium, penicillin, streptomycin, and an α-MSH ELISA kit.
as §2
• 100 ppm of the reference peptide, 100 ppm of the peptide (1), 100 ppm of the peptide (3), 100 ppm of the peptide (5), 100 ppm of NA, 100 ppm of TXC, and 100 ppm of KA.
as §4
When the cells were about 80% confluent, the samples were added to each group. In the control group, a PBS solution was added and supplemented with a culture medium to 1000 μL. In the drug groups, the diluted active substance and the culture medium were added to 1000 μL and the groups were further incubated in a 5% CO2 incubator at 37° C. for 48 h. After the completion of the culture, the solutions were centrifuged at 3000 rpm for 10 min, in each of which a cell supernatant was collected to obtain a sample liquid. Operations were performed according to the instructions of the α-MSH kit.
α-MSH can promote the formation of melanin by activating tyrosinase. Therefore, down-regulation of the α-MSH expression can reduce melanin generation and exert a whitening effect.

NCCCCC(NC(=O)C(CCC(=O)O)NC(=O)C(CCCCN)NC(=O)C1CCCN1C(=O)OCc1cc(=O)c(O)co1)C(=O)O (stereo not drawn) [peptide (5), KA-CO-Pro-Lys-Glu-Lys-OH] (X1-PKEK-OH; configuration not given here)
significantly down-regulated: effect on TNF-α expression (TNF-α) | effect on IL-6 expression (IL-6) | effect on α-MSH expression (α-MSH)

NCCCCC(NC(=O)C(CCC(=O)O)NC(=O)C(CCCCN)NC(=O)C1CCCN1C(=O)c1cccnc1)C(=O)O (stereo not drawn) [peptide (1), NA-Pro-Lys-Glu-Lys-OH] (Nicotinoyl-PKEK-OH; configuration not given here)
significantly down-regulated: effect on TNF-α expression (TNF-α) | effect on IL-6 expression (IL-6) | effect on α-MSH expression (α-MSH)
